From patent publication US20230159934 come the findings set out here.

Chains of the proteins cited; added tags and fusions are not shown. Chains listed by the source or under a name are the forms on record and can include a tag or linker.
Insulin receptor (hIR) expressed on Rat-1/hIR cells (Homo sapiens), one chain, as listed by the source, chain 2 of 2: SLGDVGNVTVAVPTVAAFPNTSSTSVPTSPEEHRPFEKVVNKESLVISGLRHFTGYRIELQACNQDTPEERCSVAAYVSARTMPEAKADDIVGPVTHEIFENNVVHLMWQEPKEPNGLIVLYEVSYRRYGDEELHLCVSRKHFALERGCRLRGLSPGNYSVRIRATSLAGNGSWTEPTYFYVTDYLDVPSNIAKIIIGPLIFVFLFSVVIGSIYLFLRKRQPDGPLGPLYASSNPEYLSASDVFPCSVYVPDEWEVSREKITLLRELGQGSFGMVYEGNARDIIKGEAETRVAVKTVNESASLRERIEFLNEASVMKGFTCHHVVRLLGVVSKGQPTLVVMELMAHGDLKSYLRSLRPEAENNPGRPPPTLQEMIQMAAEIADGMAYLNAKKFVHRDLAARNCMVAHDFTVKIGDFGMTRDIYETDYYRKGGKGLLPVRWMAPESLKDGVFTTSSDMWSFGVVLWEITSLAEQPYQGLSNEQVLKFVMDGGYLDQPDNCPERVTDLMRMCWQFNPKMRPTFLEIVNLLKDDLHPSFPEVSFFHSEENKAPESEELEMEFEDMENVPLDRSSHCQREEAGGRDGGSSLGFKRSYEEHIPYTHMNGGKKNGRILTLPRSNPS

This data set has as its system Insulin receptor (hIR) expressed on Rat-1/hIR cells (Homo sapiens). The data set is described as follows: activity in cells. Particulars: P = naphthyl-dU, 200 nM, protein on the cell surface, single-stranded DNA, variant of A48m (A48 seq 1-19).

Consider “CGCCTGGTGTTCTAGACGACCTATAGGTTAGGC [A48m A25 2'-OMe]”, for which the functional effect of the aptamer (2'-OMe at position 25, IR phosphorylation) is 0 fold of A48m.

On to “CGCCTGGTGTTCTAGACGACCTATAGGTTAGGC [A48m C21 C3-linker]”, for which the functional effect of the aptamer (C3 linker at position 21, IR phosphorylation) is 0.06 fold of A48m.

As for “CGCCTGGTGTTCTAGACGACCTATAGGTTAGGC [A48m G9 2'-OMe]”, the functional effect of the aptamer (2'-OMe at position 9, IR phosphorylation) was 0.08 fold of A48m.

Consider “CGCCTGGTGTTCTAGACGACCTATAGGTTAGGC [A48m G26 2'-F]”, for which the functional effect of the aptamer (2'-F at position 26, IR phosphorylation) is 0.04 fold of A48m. On to “CGCCTGGTGTTCTAGACGACCTATAGGTTAGGC [A48m G26 2'-OMe]”, for which the functional effect of the aptamer (2'-OMe at position 26, IR phosphorylation) is 0.03 fold of A48m.

As to “CGCCTGGTGTTCTAGACGACCTATAGGTTAGGC [A48m G27 C3-linker]”, the functional effect of the aptamer (C3 linker at position 27, IR phosphorylation) was 0.05 fold of A48m.
